{"source": "PubChem BioAssay AID504791 (Drosophila RNAi Screening Center, 2011)", "test": "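Genes of the fly required for silencing by miRNA, siRNA or endo-siRNA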 (primary screen)", "system": "Drosophila S2-derived reporter cells", "reagents": "long dsRNA against Drosophila genes, about 150-250 ng dsRNA per well (siRNA assay); about 80-120 ng (miRNA assay)", "time to read-out": "about 5 days (siRNA assay); about 4 days (miRNA assay)", "conditions": "copper sulfate induction of reporters: 25 µM (siRNA assay); 200 mM stated (miRNA assay), 1-2 days before reading", "measurement": "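Per-well ratio of Renilla over firefly light, expressed relative to that plate's average ratio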", "active means": "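First-pass picks had plate-scaled ratios over 1.5 for the siRNA assay, over 1.6 for the miRNA assay, or under 0.6; two distinct dsRNAs had to score alike on retest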", "note": "In all, the deposit lists about 23,000 reagents; shown is an unselected part of those with a known target gene and a result. In the full data, 199 (0.86%) are marked active. 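Plate-scaled ratios behind the calls are not deposited; printed light signals are raw; many rows marked increased or decreased are still called inactive.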 No sequences are given here. The record does not give: the direction of the score."}
{"gene":"Invadolysin (GeneID 49580)","amplicon":"DRSC15527","stable assay Renilla, run 1 (luminescence)":7844,"stable assay firefly, run 1 (luminescence)":5.00e5,"Call":"inactive"}
{"gene":"CG6231 (GeneID 42339)","amplicon":"DRSC15997","stable assay Renilla, run 1 (luminescence)":7267,"stable assay firefly, run 1 (luminescence)":2.96e5,"Call":"inactive"}
{"gene":"robo1 (GeneID 37603)","amplicon":"DRSC04712","stable assay Renilla, run 1 (luminescence)":6342,"stable assay firefly, run 1 (luminescence)":3.65e5,"Call":"inactive"}
{"gene":"Ir67a (GeneID 39110)","amplicon":"DRSC09897","stable assay Renilla, run 1 (luminescence)":5331,"stable assay firefly, run 1 (luminescence)":3.30e5,"Call":"inactive"}
{"gene":"frm (GeneID 38624)","amplicon":"DRSC09753","stable assay Renilla, run 1 (luminescence)":3004,"stable assay firefly, run 1 (luminescence)":1.97e5,"Call":"inactive"}
{"gene":"Nep3 (GeneID 33005)","amplicon":"DRSC20685","stable assay Renilla, run 1 (luminescence)":4931,"stable assay firefly, run 1 (luminescence)":3.13e5,"Call":"inactive"}

In a second layout: results already given
gene	amplicon	stable assay Renilla, run 1 (luminescence)	stable assay firefly, run 1 (luminescence)	Call
CG6231 (GeneID 42339)	DRSC15997	7267	2.96e5	inactive
robo1 (GeneID 37603)	DRSC04712	6342	3.65e5	inactive

Next records follow:
{"gene":"Jon99Ciii (GeneID 43543)","amplicon":"DRSC16859","stable assay Renilla, run 1 (luminescence)":6707,"stable assay firefly, run 1 (luminescence)":3.38e5,"Call":"inactive"}
{"gene":"CG8160 (GeneID 36701)","amplicon":"DRSC07086","stable assay Renilla, run 1 (luminescence)":4344,"stable assay firefly, run 1 (luminescence)":3.37e5,"Call":"inactive"}
{"gene":"CG8160 (GeneID 36701)","amplicon":"DRSC21434","stable assay Renilla, run 1 (luminescence)":8926,"stable assay firefly, run 1 (luminescence)":5.13e5,"Call":"inactive"}
{"gene":"l(3)80Fg (GeneID 3354941)","amplicon":"DRSC21645","stable assay Renilla, run 1 (luminescence)":9306,"stable assay firefly, run 1 (luminescence)":4.50e5,"Call":"inactive"}
{"gene":"l(3)80Fg (GeneID 3354941)","amplicon":"DRSC22171","stable assay Renilla, run 1 (luminescence)":9684,"stable assay firefly, run 1 (luminescence)":5.06e5,"Call":"inactive"}
{"gene":"CG8173 (GeneID 32753)","amplicon":"DRSC20088","stable assay Renilla, run 1 (luminescence)":6219,"stable assay firefly, run 1 (luminescence)":4.39e5,"Call":"inactive"}
{"gene":"AdoR (GeneID 43583)","amplicon":"DRSC16556","stable assay Renilla, run 1 (luminescence)":8402,"stable assay firefly, run 1 (luminescence)":4.26e5,"Call":"inactive"}
{"gene":"Ugt302C1 (GeneID 53510)","amplicon":"DRSC15353","stable assay Renilla, run 1 (luminescence)":7932,"stable assay firefly, run 1 (luminescence)":4.13e5,"Call":"inactive"}
{"gene":"CG10565 (GeneID 40332)","amplicon":"DRSC11620","stable assay Renilla, run 1 (luminescence)":7895,"stable assay firefly, run 1 (luminescence)":4.50e5,"Call":"inactive"}
{"gene":"Flo2 (GeneID 32425)","amplicon":"DRSC19062","stable assay Renilla, run 1 (luminescence)":4550,"stable assay firefly, run 1 (luminescence)":4.04e5,"Call":"inactive"}
{"gene":"Flo2 (GeneID 32425)","amplicon":"DRSC20244","stable assay Renilla, run 1 (luminescence)":5232,"stable assay firefly, run 1 (luminescence)":3.65e5,"Call":"inactive"}
{"gene":"CG14292 (GeneID 42264)","amplicon":"DRSC14772","stable assay Renilla, run 1 (luminescence)":6543,"stable assay firefly, run 1 (luminescence)":4.70e5,"Call":"inactive"}
{"gene":"CG40298 (GeneID 3355149)","amplicon":"DRSC22274","stable assay Renilla, run 1 (luminescence)":9777,"stable assay firefly, run 1 (luminescence)":7.23e5,"Call":"inactive"}
